# According to patent publication US20230114241A1, “METHODS OF TREATING EPILEPSY USING THE SAME” (Trevena, Inc., priority 2019, published 2023):
# Amino acid sequences for entries named in this document (tags omitted).
# UniProt P21453, whole entry: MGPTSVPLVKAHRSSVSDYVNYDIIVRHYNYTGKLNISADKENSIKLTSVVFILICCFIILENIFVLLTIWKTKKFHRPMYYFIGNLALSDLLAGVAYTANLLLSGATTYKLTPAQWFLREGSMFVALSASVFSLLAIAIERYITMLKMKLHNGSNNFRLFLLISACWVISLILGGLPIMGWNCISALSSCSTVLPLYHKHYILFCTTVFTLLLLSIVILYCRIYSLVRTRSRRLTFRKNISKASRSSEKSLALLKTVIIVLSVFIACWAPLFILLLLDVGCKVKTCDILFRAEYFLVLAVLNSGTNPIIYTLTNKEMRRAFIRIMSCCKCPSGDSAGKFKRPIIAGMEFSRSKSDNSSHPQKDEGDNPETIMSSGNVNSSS
# UniProt P32121, whole entry partner: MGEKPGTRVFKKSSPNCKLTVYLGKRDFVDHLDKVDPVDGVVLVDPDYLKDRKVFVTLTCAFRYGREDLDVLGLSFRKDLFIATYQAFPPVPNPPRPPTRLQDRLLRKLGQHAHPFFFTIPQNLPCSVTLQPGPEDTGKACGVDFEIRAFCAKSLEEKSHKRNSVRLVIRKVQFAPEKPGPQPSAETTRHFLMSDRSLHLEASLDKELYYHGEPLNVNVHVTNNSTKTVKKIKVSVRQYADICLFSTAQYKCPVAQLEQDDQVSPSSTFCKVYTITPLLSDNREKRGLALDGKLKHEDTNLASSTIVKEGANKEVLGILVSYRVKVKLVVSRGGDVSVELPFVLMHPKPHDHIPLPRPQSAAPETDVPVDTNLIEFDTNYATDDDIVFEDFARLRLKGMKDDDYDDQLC
# The match of structure and compound is tentative.
# Key:
# [1] = biological target: T1, human sphingosine-1-phosphate receptor 1 (S1P1) (Homo sapiens, UniProt P21453); test: Inhibition of cAMP production (HTRF cAMP HiRange), S1P1 CHO-K1 cells; conditions: for hS1P1 CAMP SPAN: efficacy normalized to maximum efficacy of fingolimod; for hS1P1 CAMP pEC50: potency
# [2] = biological target: T1, human sphingosine-1-phosphate receptor 1 (S1P1); test: β-Arrestin2 recruitment assay (PathHunter), S1P1 CHO-K1 cells; conditions: for hS1P1 B-arrestin2 SPAN: efficacy normalized to maximum efficacy of fingolimod; for hS1P1 B-arrestin2 pEC50: potency
SMILES,hS1P1 CAMP SPAN [1],hS1P1 CAMP pEC50 [1],hS1P1 B-arrestin2 SPAN [2],hS1P1 B-arrestin2 pEC50 [2]
CCC1(CC)CC(=O)c2cc(-c3nc(-c4ccncc4C)no3)ccc2O1,>75,>6.5,>75,>5
Cc1ccc(-c2nc(-c3ccc4c(c3)nnn4C(C)C)no2)s1,<75,<6.5,<75,<5
